US8067651B2, “1-alkyl-5-oxopyrrolidine-3-carboxylic esters with improved biodegradability” (Clariant Finance (BVI) Limited, priority 2007, dated 2011)

Legend:
[1] = Kinetic gas hydrate inhibition in stirred steel autoclave; settings: 5000 ppm based on the water phase, 50 bar natural gas, distilled water and gas 20:80; for Tagg (h), time until the torque rises: 4° C.
[2] = Agglomerate inhibition (antiagglomerant) test in autoclave with water and white spirit; settings: 5000 ppm based on the water phase; water and white spirit 1:2; 50 bar; 500 rpm

Compound | Tind (h), time from attainment of 4° C. until first gas absorption [1] [h] | Tagg (h), time until the torque rises [1] [h] | Mmax (Ncm), torque on the stirrer [2] [Ncm] | Tagg (h), agglomeration time until occurrence of gas hydrate agglomerates [2] [h]
CC(C)CN1CC(C(=O)OCCOCCOCCOC(=O)C2CC(=O)N(CC(C)C)C2)CC1=O (stereo not drawn) [Example 8, triethylene glycol di(1-isobutyl-5-oxopyrrolidine-3-carboxylate)] | 20.9 | 22.1 |  | 
CCCCCCCC/C=C\CCCCCCCCN1CC(C(=O)OCCOCCOCCOC(=O)C2CC(=O)N(CCCCCCCC/C=C\CCCCCCCC)C2)CC1=O (stereo not drawn) [Example 15, triethylene glycol di(1-oleyl-5-oxopyrrolidine-3-carboxylate)] |  |  | 1.6 | 4.1
CN1CC(C(=O)OCCOCCOCCOC(=O)C2CC(=O)N(C)C2)CC1=O (stereo not drawn) [Example 1, triethylene glycol di(1-methyl-5-oxopyrrolidine-3-carboxylate)] | 12.4 | 12.5 |  | 
